Measurements from publication PMC11106335.
No constants are given. Whether binding was seen depends on the method and setting. Binding seen in cells or lysates may run through a third protein. Some binding calls cover weakened binding; strength is not graded here.

Amino acid sequences for entries named in this document (tags omitted).
UniProt Q14258: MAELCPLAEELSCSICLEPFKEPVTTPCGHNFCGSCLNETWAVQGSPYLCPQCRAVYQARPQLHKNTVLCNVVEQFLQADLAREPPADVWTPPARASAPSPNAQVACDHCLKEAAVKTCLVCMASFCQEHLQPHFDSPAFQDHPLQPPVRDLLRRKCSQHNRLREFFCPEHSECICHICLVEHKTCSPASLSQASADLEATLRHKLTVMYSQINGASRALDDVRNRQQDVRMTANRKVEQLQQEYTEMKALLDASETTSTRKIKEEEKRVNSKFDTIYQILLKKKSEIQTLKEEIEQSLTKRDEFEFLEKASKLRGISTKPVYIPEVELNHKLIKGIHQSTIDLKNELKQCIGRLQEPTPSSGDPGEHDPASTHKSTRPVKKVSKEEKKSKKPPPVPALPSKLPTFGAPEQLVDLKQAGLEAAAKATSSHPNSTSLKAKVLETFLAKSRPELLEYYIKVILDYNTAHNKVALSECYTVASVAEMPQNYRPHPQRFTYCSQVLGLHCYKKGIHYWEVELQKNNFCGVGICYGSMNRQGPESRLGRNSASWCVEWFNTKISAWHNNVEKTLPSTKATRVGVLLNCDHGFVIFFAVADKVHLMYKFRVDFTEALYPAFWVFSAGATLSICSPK
UniProt Q9UN79: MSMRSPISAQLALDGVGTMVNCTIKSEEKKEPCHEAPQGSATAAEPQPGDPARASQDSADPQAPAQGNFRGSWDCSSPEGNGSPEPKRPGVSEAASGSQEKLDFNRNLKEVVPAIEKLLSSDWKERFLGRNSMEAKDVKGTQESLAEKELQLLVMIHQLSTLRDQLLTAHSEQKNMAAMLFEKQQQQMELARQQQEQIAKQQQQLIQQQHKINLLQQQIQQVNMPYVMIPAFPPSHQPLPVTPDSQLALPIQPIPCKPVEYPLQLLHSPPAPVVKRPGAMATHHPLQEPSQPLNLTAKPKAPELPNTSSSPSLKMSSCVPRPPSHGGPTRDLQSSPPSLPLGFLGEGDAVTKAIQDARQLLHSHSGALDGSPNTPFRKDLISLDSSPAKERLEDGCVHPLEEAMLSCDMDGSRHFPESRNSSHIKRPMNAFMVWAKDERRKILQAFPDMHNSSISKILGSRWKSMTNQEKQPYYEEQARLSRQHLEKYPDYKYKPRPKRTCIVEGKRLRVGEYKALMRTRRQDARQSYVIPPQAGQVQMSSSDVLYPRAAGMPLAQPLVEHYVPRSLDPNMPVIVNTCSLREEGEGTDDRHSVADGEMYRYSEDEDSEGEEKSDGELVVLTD

Assays:
[1] = target: endogenous TRIM25 (human (endogenous in gastric cancer cells, line not named for this experiment)) (UniProt Q14258); experiment: co-IP; endogenous proteins, cells in the presence or absence of zanamivir; cell supernatant incubated overnight with primary antibody at 4 °C, then 4 h with protein A/G Sepharose beads; Western blot
[2] = target: TRIM25 (partner of exogenous SOX13 in the co-IP) (UniProt Q14258); experiment: co-IP; exogenous SOX13 expressed in cells; cell supernatant incubated overnight with primary antibody at 4 °C, then 4 h with protein A/G Sepharose beads; Western blot

Row | Substance | binding [1] | binding [2]
1 | endogenous SOX13 (from UniProt Q9UN79 1-622) | binds | 
2 | exogenous SOX13 (from UniProt Q9UN79 1-622) |  | binds
